In patent publication US20230056969 (published 2023):
Square brackets hold non-standard residues; d marks the D form. Ends that are not written are not given here. * marks the point of attachment. NMeF = CN[C@@H](Cc1ccccc1)C(=O)O; NMeA = CN[C@@H](C)C(=O)O; Aze = O=C(O)[C@@H]1CCN1; Cbz = O=C(OCc1ccccc1)*; OtBu = CC(C)(C)O*; Sar = CNCC(=O)O

Experiment: general procedure: solution-phase peptide synthesis; T3P; HATU; BEP (with diisopropylethylamine)
Conditions: for crude LC-MS purity: LC/MS peak area %; for crude yield: whole synthesis

With Cbz-I[NMeA][Aze][NMeF][Sar]-OtBu the “crude LC-MS purity” value (coupling step) was 99.1 area % and the crude yield (from the initial amino acid) was “total 87%”.
With [NMeA][Aze][NMeF][Sar]-OtBu the step yield (late stage modification step) was “yield 97%” and the “crude LC-MS purity” value (late stage modification step) was 99.7 area %.
For “Val-MeGly-MeIle-Ser(tBu)-MePhe-MeVal-Asp(tBu)-piperidine”, the step yield (late stage modification step) was “yield 98%” and the “crude LC-MS purity” value (late stage modification step) was 97.9 area %.
For “Cbz-MeLeu-Val-MeGly-MeIle-Ser(tBu)-MePhe-MeVal-Asp(tBu)-piperidine”, the step yield (coupling step) was “yield 98%” and the “crude LC-MS purity” value (coupling step) was 96.0 area %.
For “Cbz-MePhe-Leu-MeLeu-Val-MeGly-MeIle-Ser(tBu)-MePhe-MeVal-Asp(tBu)-piperidine (SEQ ID NO: 12)”, the step yield (coupling step) was “yield 99%” and the “crude LC-MS purity” value (coupling step) was 97.0 area %.
With “Cbz-Leu-MeLeu-Val-MeGly-MeIle-Ser(tBu)-MePhe-MeVal-Asp(tBu)-piperidine” the step yield (coupling step) was “yield 98%” and the “crude LC-MS purity” value (coupling step) was 97.2 area %.
In the case of “Cbz-MeAla-MePhe-Leu-MeLeu-Val-MeGly-MeIle-Ser(tBu)-MePhe-MeVal-Asp(tBu)-piperidine”, the step yield (coupling step) is reported as “yield 96%”, the “crude LC-MS purity” value (coupling step) is reported as 95.3 area % and the crude yield (total from the initial amino acid) is reported as “total 75.3%”.
In the case of Cbz-[NMeA][Aze][NMeF][Sar]-OtBu, the step yield (coupling step) is reported as “yield 91%” and the “crude LC-MS purity” value (coupling step) is reported as 99.5 area %.
